In patent US20200283532A1 (Cancer Research Technology Limited, priority 2017, published 2020):

Assay: general procedure: Fmoc solid-phase peptide synthesis; aminomethyl polystyrene resin (0.8 mmol/g) with HMPP linker, Rink amide or HMP; HBTU/DIPEA
Conditions: whole synthesis; for final HPLC purity: analytical RP-HPLC (XTerra C18); for final HPLC purity / isolated yield: scale of the general procedure 0.1 mmol

| Substance | isolated mass | final HPLC purity | isolated yield |
| --- | --- | --- | --- |
| H2N-NK(Biotin)VPNLRGDLQVLAQKVART-NH2 | 13.4 mg | >95% | 5% |
| H2N-nK(Biotin)VPNLRGDLQVLAQKVART-OH | 47.7 mg | >95% | 19% |
| H2N-NK (Biotin) VPNLRGDLQV[norvaline]AQKVART-OH | 19.5 mg | >99% | 8% |
| H2N-NK(Biotin)VPNLRGDLQVLAQkVART-OH | 54.3 mg | >99% | 22% |
| H2N-nK(Biotin)VPNLRGDLQVLAQKVARt-OH | 36.4 mg | >95% | 15% |
| N-NK(Biotin)VPNLRGDLQVLAQ[diaminobutyric acid]VART-OH | 70.3 mg | >99% | 29% |
| H2N-NK(Biotin)VPNLRGDLQVLAQ[diaminopropionic acid]VART-OH | 59.9 mg | >99% | 25% |
| H2N-NK(Biotin)VPNLRGDLQV[aminoisobutyric acid]AQKVART-OH | 16.6 mg | >99% | 7% |
| H2N-NK(Biotin)VPNLRGDLQV[homoleucine]AQKVART-OH | 26.1 mg | >99% | 11% |
| H2N-NK(Biotin)VPNLRGDLQV[allylglycine]AQKVART-OH | 5.5 mg | >99% | 2% |
| DTPA-nK(Biotin)VPNLRGDLQVLAQKVARt-OH | 12.5 mg | >95% | 4% |
| DTPA-nK(Biotin)VPNLRGDLQVLAQKVART-OH | 37.5 mg | >95% | 13% |
| H2N-NK (Biotin) VPNLRGDLQV[tert-butyl-alanine]AQKVART-OH | 7.5 mg | >99% | 3% |
| H2N-NK(Biotin)VPNLRGDLQVLAQKVART-OH | 97.1 mg | >99% | 50% |
| AcHN-NK(Biotin)VPNLRGDLQVLAQKVART-NH2 | 12.5 mg | >95% | 5% |
| H2N-NK(Biotin)VPNLRGDLQV[norleucine]AQKVART-OH | 18.7 mg | >99% | 8% |
| H2N-NK(Biotin)VPNLRGDLQV[adamantylglycine]AQKVART-OH | 22.4 mg | >99% | 9% |
| DTPA-GNK(Biotin)VPNLRGDLQVLAQKVART-OH | 41.9 mg | >95% | 15% |
| AcHN-NK(Biotin)VPNLRGDLQVLAQKVART-OH | 30.1 mg | >99% | 12% |
| H2N-NK(Biotin)VPNLRGDLQVLAQ-N-MeKVART-OH | 72.7 mg | >99% | 30% |
| H2N-NK(Biotin)VPNLRGDLQVLAQ[ornithine]VART-OH | 63.5 mg | >99% | 26% |
| H2N-NK(Biotin)VPNLRGDLQVLAQKVARt-OH | 45.3 mg | >95% | 19% |
| H2N-NK(Biotin)VPNLRGDLQV[2-amino-3-ethylpentanoic acid]AQKVART-OH | 10.1 mg | >99% | 4% |
| H2N-NK(Biotin)VPNLRGDLQV[cyclohexylalanine]AQKVART-OH | 6.2 mg | >99% | 2% |
